Measured data: PubChem BioAssay AID1259425 (University of Nebraska Medical Center, 2018)
Shown is an unselected part of about 14,000 deposited reagents. Not all columns of the deposit are shown. No sequences are given here. Not stated in the record: the time to read-out.

Screen: 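Compare each knockdown with KSR1 silencing using changes in marker transcripts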 (primary screen)
System: HCT116 human colon cancer cells
Reagent: siRNA pool against human genes, 50 nM siRNA
Read-out: 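mRNA of six signature genes measured together by branched-DNA assay after 50 nM siRNA pool, blank removed, divided by geometric mean of two housekeeping genes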
Direction: BNIP3L mRNA: higher = more BNIP3L transcript after knockdown; NDRG1 mRNA: higher = more NDRG1 transcript after knockdown; BNIP3 mRNA: higher = more BNIP3 transcript after knockdown; ALDOC mRNA: higher = more ALDOC transcript after knockdown

The first 4 entries, to show the layout:
no.	Target gene	BNIP3L mRNA, set 1	NDRG1 mRNA, set 1	BNIP3 mRNA, set 1	ALDOC mRNA, set 1
1	ATP2B3	0.0931	0.319	0.242	0.0119
2	NSUN2	0.0473	0.361	0.318	0.0148
3	CSNK2A1	0.0718	0.229	0.194	0.0107
4	HNRNPR	0.0832	0.116	0.297	0.0313

Results, from the start:
no.	Target gene	BNIP3L mRNA, set 1	NDRG1 mRNA, set 1	BNIP3 mRNA, set 1	ALDOC mRNA, set 1
1	ATP2B3	0.0931	0.319	0.242	0.0119
2	NSUN2	0.0473	0.361	0.318	0.0148
3	CSNK2A1	0.0718	0.229	0.194	0.0107
4	HNRNPR	0.0832	0.116	0.297	0.0313
5	IRF4	0.13	0.454	0.23	0.00494
6	RAB3B	0.119	0.148	0.317	0.0309
7	PLD3	0.133	0.315	0.307	0.0176
8	BACH2	0.178	0.149	0.385	0.0326
9	TAF1L	0.0843	0.123	0.324	0.006
10	NBPF1	0.0965	0.221	0.441	0.0718
11	HPS4	0.0549	0.0515	0.309	0.00913
12	HUS1B	0.108	0.119	0.245	0.0238
13	MT-ND5	0.059	0.251	0.203	0.0103
14	CNIH1	0.118	1.37	0.325	0.0185
15	ENPP4	0.106	0.355	0.309	0.0124
16	EIF1AY	0.056	0.107	0.159	0.0109
17	MSH5	0.0801	0.157	0.202	0.0229
18	VPS9D1	0.289	1.1	0.251	0.0127
19	TGFB3	0.179	0.311	0.386	0.0535
20	DNTTIP1	0.212	0.945	0.341	0.0837
21	PSMD12	0.306	1.46	0.416	0.0363
22	ARAF	0.0614	0.227	0.252	0.00899
23	HOXA4	0.0439	0.116	0.218	0.0053
24	VANGL2	0.299	0.298	0.501	0.071
25	MPC1	0.132	0.103	0.212	0.0246
26	NPC1	0.0696	0.139	0.203	0.0191
27	NFIL3	0.0802	0.185	0.368	0.0134
28	SPNS1	0.212	0.159	0.274	0.0995
29	ORC1	0.112	0.507	0.399	0.0358
30	CCT7	0.0808	0.152	0.227	0.0398
31	PRICKLE3	0.174	0.153	0.288	0.0278
32	ADAM9	0.244	0.19	0.435	0.0232
33	NIT1	0.102	0.137	0.307	0.0263
34	MKRN4P	0.121	0.115	0.246	0.02
35	AP3S2	0.128	0.389	0.323	0.0913
36	TRIM27	0.0852	0.104	0.664	0.00382
37	GNE	0.15	0.186	0.32	0.024
38	WNT5A	0.108	0.247	0.366	0.0385
39	APOL2	0.0953	0.0922	0.381	0.0513
40	ALOXE3	0.147	0.397	0.475	0.0401
41	PLA2G3	0.14	0.0561	0.233	0.0163
42	KLHL1	0.145	0.126	0.281	0.0167
43	TCF7L1	0.156	0.676	0.449	0.00478
44	PRORP	0.109	0.115	0.257	0.0292
45	PHLPP2	0.0903	0.19	0.309	0.0127
46	WDR82	0.24	0.391	0.497	0.0172
47	CHD7	0.0776	0.116	0.281	0.0251
48	GGA3	0.0824	0.0952	0.323	0.0293
49	RNF40	0.107	0.158	0.418	0.0309
50	FAXC	0.386	0.291	0.321	0.152
